Publication doi:10.1101/2021.03.25.436948
These are yes or no findings as the source states them, for the method shown. Binding seen in cells or lysates may run through a third protein. Some entries that bind do so weakly or less than the wild type.

Protein sequences, listed by entry. Tags and fused reporters are not part of them.
UniProt Q3T906: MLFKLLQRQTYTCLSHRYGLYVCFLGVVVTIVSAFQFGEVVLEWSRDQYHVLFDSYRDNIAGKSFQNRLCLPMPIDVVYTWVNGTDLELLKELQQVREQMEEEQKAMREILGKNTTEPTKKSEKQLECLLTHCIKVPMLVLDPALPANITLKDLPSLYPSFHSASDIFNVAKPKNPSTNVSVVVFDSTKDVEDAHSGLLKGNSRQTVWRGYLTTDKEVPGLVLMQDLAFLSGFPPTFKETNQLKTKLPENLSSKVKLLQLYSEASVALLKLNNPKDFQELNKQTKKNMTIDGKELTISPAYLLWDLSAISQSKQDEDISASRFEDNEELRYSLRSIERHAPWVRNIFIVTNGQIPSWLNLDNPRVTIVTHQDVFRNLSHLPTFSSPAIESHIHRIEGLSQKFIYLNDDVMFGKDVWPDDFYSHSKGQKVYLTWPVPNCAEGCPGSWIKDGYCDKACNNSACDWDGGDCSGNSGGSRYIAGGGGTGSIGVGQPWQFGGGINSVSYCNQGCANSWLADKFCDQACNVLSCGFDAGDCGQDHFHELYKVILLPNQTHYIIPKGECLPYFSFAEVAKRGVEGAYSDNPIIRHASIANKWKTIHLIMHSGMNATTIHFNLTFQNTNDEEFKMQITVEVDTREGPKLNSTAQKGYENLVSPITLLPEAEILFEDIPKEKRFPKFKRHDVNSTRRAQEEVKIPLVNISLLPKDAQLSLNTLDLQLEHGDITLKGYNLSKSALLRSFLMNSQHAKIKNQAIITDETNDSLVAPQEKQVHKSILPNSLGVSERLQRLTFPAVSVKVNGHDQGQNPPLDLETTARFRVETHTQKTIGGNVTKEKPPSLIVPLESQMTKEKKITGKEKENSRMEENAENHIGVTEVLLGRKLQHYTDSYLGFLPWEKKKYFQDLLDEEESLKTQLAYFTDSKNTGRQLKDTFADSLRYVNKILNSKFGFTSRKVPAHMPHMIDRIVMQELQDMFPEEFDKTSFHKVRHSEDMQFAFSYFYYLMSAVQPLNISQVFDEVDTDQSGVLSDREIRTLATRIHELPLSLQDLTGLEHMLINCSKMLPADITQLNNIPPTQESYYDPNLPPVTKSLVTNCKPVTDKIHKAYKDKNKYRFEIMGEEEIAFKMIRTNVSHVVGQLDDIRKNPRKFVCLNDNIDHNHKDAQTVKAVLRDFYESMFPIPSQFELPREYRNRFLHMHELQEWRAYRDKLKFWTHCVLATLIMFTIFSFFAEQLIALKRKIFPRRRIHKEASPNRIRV

Molecular target: human GNPTAB, wild type, C-terminally Flag- or V5-tagged (human) (UniProt Q3T906)
Assay: co-IP

binding: binds
Substance: human GNPTAB, wild type, C-terminally Flag- or V5-tagged (from UniProt Q3T906 1-1256) (enzyme)
